# Data from the supplement of paper PMC10338343.
# ± gives the standard deviation. The list shows a part of the results, in another mix than the full data. The uncertainty is large for many entries.
# System: EfPiwi piRISC loaded with piRNA #1 (26 nt)
# Assay: pre-steady-state target cleavage rate (min^-1); guide: piRNA #1 5'p-UGAGGUAGUAGGUUGUAUAGUAUCCA; MIWI and MILI are mouse PIWI proteins and EfPiwi is from a freshwater sponge; tags in brackets are library labels; higher = faster piRNA-guided slicing of the target
# Conditions: auxiliary factor: 500 nM Ephydatia muelleri Gtsf1
# Method in brief: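 Reactions were run for 0–8 or 0–960 min at 33 °C in HEPES–potassium acetate buffer, combining 1 nM active affinity-purified piRISC with one synthetic guide, […] transcribed, DNA-blocked target RNA library and, in some cases, 500 nM GTSF1 partner protein. Sequencing of uncleaved targets followed, with normalisation to depth and to weakly complementary targets. Three trials were pooled, k3 was capped at 0.0001 min^-1, and the pre-steady-state cleavage rate was taken from a burst-and-steady-state fit.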
row,Sequence,pre-steady-state target cleavage rate
1,GGAGACGAUACUAUCACAACCUACUACCUCA,0.0153 ± 0.0062
2,GGAGACCUAACAAUACAUCCUACUACCUCA,0.00431 ± 0.0035
3,GGAGACCUAUCUAUACAACCUACGACCUCA,0.0023 ± 0.0047
4,GGAGACCAUACUAUACUUGCUACUACCUCA,0.00107 ± 0.0083
5,GGAGUGGAUACUAUACAACCUACUAACUCA,0.00991 ± 0.0043
6,GGAGAGGAUACUAUACAACCAACUACCUGA,0.00332 ± 0.0017
7,GGAGACCUAUGAUAUCAAGCCUACUACCUCA,0.000637 ± 0.0088
8,GGAGAGGAUAGUAUACAACCUACUAGCUCA,0.00348 ± 0.0023
9,GGAGACGAUACAAUACAACCUACAACCUCA,0.00274 ± 0.0027
10,GGAGACGAUUGUAUACAACCUACUACCUCA,0.00299 ± 0.0037
11,GGAGAGGAUACUAUACAAACCUACUACCUCA,0.0671 ± 0.028
12,GGAGACCUUACUAUACAACCUCCUACCUCA,0.00545 ± 0.003
13,GGAGACCUAUGUAUAGAAGCUACUACCUCA,0.000384 ± 0.0067
14,GGAGACCAUACUUUAGAACCUACUACCUCA,0.00256 ± 0.0031
15,GGAGACCUAUGUAUACAACCCACUACCUCA,0.000887 ± 0.0073
16,GGAGACCUAUGUAUACAACGUACUACCUCA,0.00163 ± 0.0035

# Two entries picked at random from the list so far, as already listed:
row,Sequence,pre-steady-state target cleavage rate
11,GGAGAGGAUACUAUACAAACCUACUACCUCA,0.0671 ± 0.028
13,GGAGACCUAUGUAUAGAAGCUACUACCUCA,0.000384 ± 0.0067
